Results as given in article PMC4820897, “Structural insight in the toppling mechanism of an energy-coupling factor transporter” (Nature Communications, 2016).
Results are given in words; binding and its absence hold for the method and conditions named. Binding can be weak; no strength is given. For some assays here: Binding seen in cells or lysates may run through a third protein.

Tests used:
[1] = molecular target: EcfA of the ECF module from Lactobacillus delbrueckii subsp. bulgaricus (Lactobacillus delbrueckii subsp. bulgaricus); experiment: crystal structure; AMP–PNP-bound ECF–FolT2 complex, 3.3 Å; crystallised with 10 mM MgCl2, 10 mM AMP–PNP and 1 μM folate; complex purified in DDM; both purified
[2] = molecular target: EcfA′ of the ECF module from Lactobacillus delbrueckii subsp. bulgaricus (Lactobacillus delbrueckii subsp. bulgaricus); experiment: as above
[3] = molecular target: EcfA of the ECF module from Lactobacillus delbrueckii subsp. bulgaricus (Lactobacillus delbrueckii subsp. bulgaricus); experiment: crystal structure; apo ECF–FolT2 complex (no nucleotides or folate), 3.0 Å; complex purified in DDM; both purified
[4] = molecular target: EcfA′ of the ECF module from Lactobacillus delbrueckii subsp. bulgaricus (Lactobacillus delbrueckii subsp. bulgaricus); experiment: as above
[5] = molecular target: EcfA of the ECF module from Lactobacillus delbrueckii subsp. bulgaricus (Lactobacillus delbrueckii subsp. bulgaricus); experiment: co-purification (Ni2+-sepharose by the His10 tag on EcfA, then SEC); ECF–FolT1 complex co-expressed in E. coli, solubilised from membrane vesicles; the protocol is told for ECF–FolT2 (1% DDM, 50 mM KPi pH 7.5, 300 mM NaCl)

- binding [1]: binds
- binding [2]: binds
- binding [3]: binds
- binding [4]: binds
- binding [5]: binds
B1: EcfT of the ECF module from Lactobacillus delbrueckii subsp. bulgaricus (protein, UniProt Q1GBI8 1-265)
chain: MSKIIIGRYLPGTTFVYRVDPRAKLLTTFYFIIMIFLANNWVSYLVISIFGLAYVFATGLKARVFWDGVKPMIWMIVFTSLLQTFFMAGGKVYWHWWIFTLSSEGLINGLYVFIRFAMIILVSTVMTVTTKPLEIADAMEWMLTPLKLFKVNVGMISLVISIALRFVPTLFDQTVKIMNAQRSRGADFNDGGLVKRAKSVVPMLVPLFIDSLEVALDLSTAMESRGYKGSEGRTRYRILEWSKVDLIPVAYCLLLTILMITTRKH
